Assay: general procedure: solution-phase peptide synthesis; DIC/HOBt; HBTU/HOBt/DIEA; HBTU/HOOBt/DIPEA; DIC/HOOBt/DIPEA
Conditions: coupling step

Boc-(Lys(Z)-Leu4)4Lys(Z)-OBzI showed a step yield of 99.7%.

Reference: patent publication US8217142 (dated 2012)
